Publication PMC6369847 (International Journal of Nanomedicine, 2019)
≈ marks a conversion by molar mass, not a printed value.

Test system: A549 cells
Assay: Cytotoxicity test by MTT assay, A549
Assay type: cell-based
Details: Homo sapiens, A549, 48 h

CC(=O)O[C@H]1C(=O)[C@@]2(C)[C@H]([C@H](OC(=O)c3ccccc3)[C@]3(O)C[C@H](OC(=O)[C@H](O)[C@@H](NC(=O)c4ccccc4)c4ccccc4)C(C)=C1C3(C)C)[C@]1(OC(C)=O)CO[C@@H]1C[C@@H]2O [PTX, Paclitaxel]
IC50: 1.26 µg/mL (≈ 1.48 µM)
